Experimental data from patent publication US20260078175A1 (Boehringer Ingelheim, published 2026).
No constants are given. Whether binding was seen depends on the method and setting. A result given as binding can be weak or reduced; the word gives no strength.

Biological target: Cynomolgus Sema3A (cynomolgus)
Assay: SPR, comparison with Samsung scFv 1-3

binding: binds
B1: Antibody of the invention (clone I) (antibody, human IgG1, kappa, L234A L235A, V domains shown)
VH: EVQLVESGGGLVQPGGSLRLSCAASGFTFSSYYMSWVRQAPGKGLEWVSTIIKSGGYAYYPDSVKDRFTISRDNSKNTLYLQMSSLRAEDTAVYYCVRGGQGAMDYWGQGTTVTVSS
VL: EIVLTQSPATLSLSPGERATLSCRASQSIGDYLHWYQQKPGQAPRLLIKYASQSISGIPARFSGSGSGTDFTLTITSLEPEDFAVYYCQQGYSFPYTFGGGTKLEIKR
notes: also called clone 1; anti-Sema3A antibody of the invention
